Results as given in publication doi:10.1101/2022.02.23.481674.
Results are given in words; binding and its absence hold for the method and conditions named. Binding seen in cells or lysates may run through a third protein. Some binding calls cover weakened binding; strength is not graded here.

Sequences of proteins named here, by UniProt entry; tags and fusion partners are left off. A change or cut given only in a name is not applied to a line headed by its entry. A line that says so, or that is headed by a name, gives the form on record, which may keep a tag or linker.
CD44, standard form (CD44s), endogenous in MDA-MB-231 cells (human (endogenous in MDA-MB-231)) (P16070, form named): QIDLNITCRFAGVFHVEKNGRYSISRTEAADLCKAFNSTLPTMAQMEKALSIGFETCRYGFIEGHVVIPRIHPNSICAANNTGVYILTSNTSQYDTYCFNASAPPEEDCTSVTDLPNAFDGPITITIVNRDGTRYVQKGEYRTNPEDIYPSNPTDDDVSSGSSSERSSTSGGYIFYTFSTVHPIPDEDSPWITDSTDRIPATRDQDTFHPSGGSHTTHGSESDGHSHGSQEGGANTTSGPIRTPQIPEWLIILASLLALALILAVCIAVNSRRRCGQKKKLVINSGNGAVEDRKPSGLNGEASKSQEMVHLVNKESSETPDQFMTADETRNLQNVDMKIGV

Molecular target: CD44, standard form (CD44s), endogenous in MDA-MB-231 cells (human (endogenous in MDA-MB-231)) (UniProt P16070)
Experiment: co-IP

- binding: binds
B1: CD81, endogenous (protein, UniProt P60033 1-236)
chain: MGVEGCTKCIKYLLFVFNFVFWLAGGVILGVALWLRHDPQTTNLLYLELGDKPAPNTFYVGIYILIAVGAVMMFVGFLGCYGAIQESQCLLGTFFTCLVILFACEVAAGIWGFVNKDQIAKDVKQFYDQALQQAVVDDDANNAKAVVKTFHETLDCCGSSTLTALTTSVLKNNLCPSGSNIISNLFKEDCHQKIDDLFSGKLYLIGIAAIVVAVIMIFEMILSMVLCCGIRNSSVY
